Reference: the supplement of paper PMC6411743
± gives the standard deviation of the averaged measurements. Only a part is listed here, and it is no random draw.

How the values were obtained:
Experiment in all cases: NP40-soluble protein abundance relative to vehicle (solubility fold change) (ratio); higher = more soluble protein in presence of AMP-PNP
USP38 = molecular target: T1, USP38 (UniProt Q8NB14)
T1 sequence (whole entry): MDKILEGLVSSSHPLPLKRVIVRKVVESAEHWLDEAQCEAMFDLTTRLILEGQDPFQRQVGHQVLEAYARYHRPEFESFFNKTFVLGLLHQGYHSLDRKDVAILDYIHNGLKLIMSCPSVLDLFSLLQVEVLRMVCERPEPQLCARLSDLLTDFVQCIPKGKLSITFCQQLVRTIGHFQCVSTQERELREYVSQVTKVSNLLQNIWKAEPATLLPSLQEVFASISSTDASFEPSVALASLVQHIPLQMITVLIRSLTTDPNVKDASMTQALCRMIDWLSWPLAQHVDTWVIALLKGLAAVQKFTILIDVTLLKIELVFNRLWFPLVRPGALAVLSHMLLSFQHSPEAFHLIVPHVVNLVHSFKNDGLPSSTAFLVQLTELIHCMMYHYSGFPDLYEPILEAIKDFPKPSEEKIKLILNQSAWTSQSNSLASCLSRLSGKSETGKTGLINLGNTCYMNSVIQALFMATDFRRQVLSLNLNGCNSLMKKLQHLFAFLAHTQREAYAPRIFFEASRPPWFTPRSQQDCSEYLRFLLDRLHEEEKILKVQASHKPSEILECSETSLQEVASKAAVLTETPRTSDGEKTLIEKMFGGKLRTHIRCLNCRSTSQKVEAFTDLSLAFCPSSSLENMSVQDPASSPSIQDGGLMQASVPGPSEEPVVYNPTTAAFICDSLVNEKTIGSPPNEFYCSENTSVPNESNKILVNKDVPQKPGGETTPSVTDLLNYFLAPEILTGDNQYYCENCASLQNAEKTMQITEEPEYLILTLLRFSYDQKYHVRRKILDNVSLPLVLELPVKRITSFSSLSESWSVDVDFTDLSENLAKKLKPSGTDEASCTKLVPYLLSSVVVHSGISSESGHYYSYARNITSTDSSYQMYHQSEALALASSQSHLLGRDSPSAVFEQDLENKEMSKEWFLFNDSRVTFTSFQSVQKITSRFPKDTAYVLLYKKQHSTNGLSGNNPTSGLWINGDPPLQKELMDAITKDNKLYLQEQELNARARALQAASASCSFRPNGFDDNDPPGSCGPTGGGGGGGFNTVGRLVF
Method in brief: (§1)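 Jurkat crude lysate (Dounce-homogenised) was treated with eight concentrations from 0.1 to 10 mM for 10 min at room temperature, then 3 min at 37 °C. It was solubilised with 0.8% NP40 and benzonase (60 min, 4 °C) and ultracentrifuged, and the supernatant was TMT-labelled for LC-MS/MS. Intensities were vsn-normalised, and the value is the fold change against the NP40-processed vehicle per replicate, from three independent experiments.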

[1] = molecular target: T2, UniProt Q86TB9 and related entries
T2 sequence (whole entry): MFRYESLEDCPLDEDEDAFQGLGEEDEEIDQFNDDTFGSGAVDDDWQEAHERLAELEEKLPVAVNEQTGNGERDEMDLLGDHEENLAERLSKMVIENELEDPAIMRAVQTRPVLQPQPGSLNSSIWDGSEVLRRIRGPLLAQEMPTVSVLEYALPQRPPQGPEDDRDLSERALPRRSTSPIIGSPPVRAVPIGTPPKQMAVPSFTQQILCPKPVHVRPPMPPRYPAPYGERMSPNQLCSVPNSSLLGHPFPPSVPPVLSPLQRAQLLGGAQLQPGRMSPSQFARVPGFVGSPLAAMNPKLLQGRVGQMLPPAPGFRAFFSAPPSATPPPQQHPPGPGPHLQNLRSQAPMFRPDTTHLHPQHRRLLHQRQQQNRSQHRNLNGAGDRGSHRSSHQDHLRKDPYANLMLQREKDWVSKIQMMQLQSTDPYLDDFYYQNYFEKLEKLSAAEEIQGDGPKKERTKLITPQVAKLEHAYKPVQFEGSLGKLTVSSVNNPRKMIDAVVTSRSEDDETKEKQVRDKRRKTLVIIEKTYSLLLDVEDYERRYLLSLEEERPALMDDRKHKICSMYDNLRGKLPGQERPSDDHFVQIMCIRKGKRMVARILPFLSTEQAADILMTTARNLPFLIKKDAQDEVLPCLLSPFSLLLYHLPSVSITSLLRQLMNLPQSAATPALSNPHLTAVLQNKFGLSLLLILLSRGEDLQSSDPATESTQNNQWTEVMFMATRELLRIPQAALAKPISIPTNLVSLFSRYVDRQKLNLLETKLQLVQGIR
Method in brief: as §1

[2] = molecular target: T3, UniProt Q86WA6 and related entries
T3 sequence (whole entry): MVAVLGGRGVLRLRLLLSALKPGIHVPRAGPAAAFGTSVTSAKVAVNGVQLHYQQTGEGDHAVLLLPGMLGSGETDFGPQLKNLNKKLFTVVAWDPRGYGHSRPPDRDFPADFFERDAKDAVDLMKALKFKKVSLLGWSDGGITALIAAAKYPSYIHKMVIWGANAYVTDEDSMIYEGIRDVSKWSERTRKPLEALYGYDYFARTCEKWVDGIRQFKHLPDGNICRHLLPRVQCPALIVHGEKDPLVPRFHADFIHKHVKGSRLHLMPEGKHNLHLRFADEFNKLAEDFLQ
Method in brief: as §1

[3] = molecular target: T4, UniProt Q86X53 and related entries
T4 sequence (whole entry): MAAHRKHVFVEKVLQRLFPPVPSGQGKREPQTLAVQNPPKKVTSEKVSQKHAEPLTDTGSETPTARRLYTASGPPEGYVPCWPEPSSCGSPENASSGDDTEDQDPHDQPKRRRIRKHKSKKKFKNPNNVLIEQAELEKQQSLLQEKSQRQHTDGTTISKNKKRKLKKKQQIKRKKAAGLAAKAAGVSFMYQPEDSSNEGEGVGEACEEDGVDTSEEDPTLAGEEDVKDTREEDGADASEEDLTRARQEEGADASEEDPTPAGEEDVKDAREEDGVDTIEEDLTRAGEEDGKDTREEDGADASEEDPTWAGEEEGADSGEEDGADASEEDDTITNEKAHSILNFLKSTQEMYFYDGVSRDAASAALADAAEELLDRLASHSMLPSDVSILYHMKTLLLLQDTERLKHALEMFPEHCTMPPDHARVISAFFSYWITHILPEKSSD
Method in brief: as §1

[4] = molecular target: T5, UniProt Q86YP4-2|Q86YP4-3|Q86YP4
T5 sequence (whole entry): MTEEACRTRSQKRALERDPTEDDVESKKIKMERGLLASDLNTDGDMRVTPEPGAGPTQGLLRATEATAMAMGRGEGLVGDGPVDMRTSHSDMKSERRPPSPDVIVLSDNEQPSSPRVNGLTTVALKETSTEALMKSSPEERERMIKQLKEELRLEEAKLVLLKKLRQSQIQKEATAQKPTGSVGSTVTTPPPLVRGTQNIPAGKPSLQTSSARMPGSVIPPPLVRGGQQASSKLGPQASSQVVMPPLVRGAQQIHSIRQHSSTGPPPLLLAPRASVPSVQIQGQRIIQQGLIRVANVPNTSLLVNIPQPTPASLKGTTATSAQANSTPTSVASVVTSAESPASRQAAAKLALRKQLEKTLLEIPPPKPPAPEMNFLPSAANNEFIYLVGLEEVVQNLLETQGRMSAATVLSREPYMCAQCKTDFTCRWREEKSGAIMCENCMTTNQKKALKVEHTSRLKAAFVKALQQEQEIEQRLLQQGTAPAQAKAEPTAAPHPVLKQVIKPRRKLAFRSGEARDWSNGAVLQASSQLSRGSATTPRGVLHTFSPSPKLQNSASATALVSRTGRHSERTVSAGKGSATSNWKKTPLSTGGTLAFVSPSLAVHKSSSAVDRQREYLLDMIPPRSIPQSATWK
Method in brief: as §1

Nc1ncnc2c1ncn2[C@@H]1O[C@H](COP(=O)(O)OP(=O)(O)NP(=O)(O)O)[C@@H](O)[C@H]1O [adenylyl imidodiphosphate]
NP40-soluble protein abundance (USP38; concentration: 1mM): 1.03 ± 0.022 | NP40-soluble protein abundance (USP38; concentration: 2mM): 0.998 ± 0.03 | NP40-soluble protein abundance (USP38; concentration: 4mM): 1 ± 0.012 | NP40-soluble protein abundance (USP38; concentration: 6mM): 1.01 ± 0.038 | NP40-soluble protein abundance (USP38; concentration: 8mM): 1.02 ± 0.011 | NP40-soluble protein abundance (USP38; concentration: 10mM): 1.01 ± 0.035 | NP40-soluble protein abundance ([1]; concentration: 1mM): 1 ± 0.024 | NP40-soluble protein abundance ([1]; concentration: 2mM): 1.02 ± 0.048 | NP40-soluble protein abundance ([1]; concentration: 4mM): 1.01 ± 0.051 | NP40-soluble protein abundance ([1]; concentration: 6mM): 1.07 ± 0.033 | NP40-soluble protein abundance ([1]; concentration: 8mM): 1.06 ± 0.049 | NP40-soluble protein abundance ([1]; concentration: 10mM): 1.09 ± 0.033 | NP40-soluble protein abundance ([2]; concentration: 1mM): 0.986 ± 0.023 | NP40-soluble protein abundance ([2]; concentration: 2mM): 0.983 ± 0.014 | NP40-soluble protein abundance ([2]; concentration: 4mM): 1 ± 0.039 | NP40-soluble protein abundance ([2]; concentration: 6mM): 0.974 ± 0.017 | NP40-soluble protein abundance ([2]; concentration: 8mM): 0.9655 ± 0.0081 | NP40-soluble protein abundance ([2]; concentration: 10mM): 0.992 ± 0.031 | NP40-soluble protein abundance ([3]; concentration: 1mM): 0.996 ± 0.016 | NP40-soluble protein abundance ([3]; concentration: 2mM): 1.01 ± 0.045 | NP40-soluble protein abundance ([3]; concentration: 4mM): 1.03 ± 0.034 | NP40-soluble protein abundance ([3]; concentration: 6mM): 1.05 ± 0.028 | NP40-soluble protein abundance ([3]; concentration: 8mM): 1.05 ± 0.054 | NP40-soluble protein abundance ([3]; concentration: 10mM): 1.06 ± 0.057 | NP40-soluble protein abundance ([4]; concentration: 1mM): 1.02 ± 0.054 | NP40-soluble protein abundance ([4]; concentration: 2mM): 1.09 ± 0.018 | NP40-soluble protein abundance ([4]; concentration: 4mM): 1.07 ± 0.05 | NP40-soluble protein abundance ([4]; concentration: 6mM): 1.06 ± 0.07 | NP40-soluble protein abundance ([4]; concentration: 8mM): 1.06 ± 0.058 | NP40-soluble protein abundance ([4]; concentration: 10mM): 1.1 ± 0.071
